Measurements: patent US20120328623A1 (Kyowa Kirin, published 2012)
No constants are given. Whether binding was seen depends on the method and setting. Some binding calls cover weakened binding; strength is not graded here.

Protein sequences, listed by entry. Tags and fused reporters are not part of them. Lines headed by an entry give the natural chain unless they say otherwise; changes in a name come on top.
UniProt Q61526: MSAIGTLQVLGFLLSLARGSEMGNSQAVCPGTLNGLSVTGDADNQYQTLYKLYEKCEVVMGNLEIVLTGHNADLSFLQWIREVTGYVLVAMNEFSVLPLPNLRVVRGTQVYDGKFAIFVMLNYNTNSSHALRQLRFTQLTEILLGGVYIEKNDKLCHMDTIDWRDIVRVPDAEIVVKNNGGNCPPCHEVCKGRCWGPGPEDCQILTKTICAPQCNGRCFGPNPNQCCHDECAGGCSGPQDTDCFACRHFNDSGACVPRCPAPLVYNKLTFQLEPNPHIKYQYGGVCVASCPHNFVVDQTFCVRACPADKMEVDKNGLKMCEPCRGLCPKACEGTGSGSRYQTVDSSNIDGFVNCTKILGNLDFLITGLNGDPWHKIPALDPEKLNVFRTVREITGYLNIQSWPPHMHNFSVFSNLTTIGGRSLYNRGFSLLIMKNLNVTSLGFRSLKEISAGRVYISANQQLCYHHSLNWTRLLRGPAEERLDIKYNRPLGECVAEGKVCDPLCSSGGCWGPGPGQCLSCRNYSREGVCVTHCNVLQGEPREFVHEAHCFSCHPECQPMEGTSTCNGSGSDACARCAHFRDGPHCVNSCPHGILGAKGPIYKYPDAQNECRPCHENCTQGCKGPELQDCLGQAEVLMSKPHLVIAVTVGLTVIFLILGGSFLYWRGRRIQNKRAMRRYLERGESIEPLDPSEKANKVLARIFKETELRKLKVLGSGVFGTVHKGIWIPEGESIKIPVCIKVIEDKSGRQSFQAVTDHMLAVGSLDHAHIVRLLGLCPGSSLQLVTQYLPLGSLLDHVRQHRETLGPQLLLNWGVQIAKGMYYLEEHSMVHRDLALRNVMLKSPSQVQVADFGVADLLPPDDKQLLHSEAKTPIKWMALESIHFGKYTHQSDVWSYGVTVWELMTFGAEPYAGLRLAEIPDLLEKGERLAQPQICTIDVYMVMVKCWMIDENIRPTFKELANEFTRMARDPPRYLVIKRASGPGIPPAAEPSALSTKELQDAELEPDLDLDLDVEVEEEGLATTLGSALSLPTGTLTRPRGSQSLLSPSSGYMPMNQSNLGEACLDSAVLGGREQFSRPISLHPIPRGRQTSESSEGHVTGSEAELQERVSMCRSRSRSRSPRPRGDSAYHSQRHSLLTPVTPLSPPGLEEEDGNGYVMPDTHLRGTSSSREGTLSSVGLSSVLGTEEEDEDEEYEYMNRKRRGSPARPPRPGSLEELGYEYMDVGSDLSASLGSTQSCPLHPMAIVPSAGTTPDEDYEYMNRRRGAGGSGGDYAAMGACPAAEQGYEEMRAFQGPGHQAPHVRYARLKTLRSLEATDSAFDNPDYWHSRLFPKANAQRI
UniProt P21860: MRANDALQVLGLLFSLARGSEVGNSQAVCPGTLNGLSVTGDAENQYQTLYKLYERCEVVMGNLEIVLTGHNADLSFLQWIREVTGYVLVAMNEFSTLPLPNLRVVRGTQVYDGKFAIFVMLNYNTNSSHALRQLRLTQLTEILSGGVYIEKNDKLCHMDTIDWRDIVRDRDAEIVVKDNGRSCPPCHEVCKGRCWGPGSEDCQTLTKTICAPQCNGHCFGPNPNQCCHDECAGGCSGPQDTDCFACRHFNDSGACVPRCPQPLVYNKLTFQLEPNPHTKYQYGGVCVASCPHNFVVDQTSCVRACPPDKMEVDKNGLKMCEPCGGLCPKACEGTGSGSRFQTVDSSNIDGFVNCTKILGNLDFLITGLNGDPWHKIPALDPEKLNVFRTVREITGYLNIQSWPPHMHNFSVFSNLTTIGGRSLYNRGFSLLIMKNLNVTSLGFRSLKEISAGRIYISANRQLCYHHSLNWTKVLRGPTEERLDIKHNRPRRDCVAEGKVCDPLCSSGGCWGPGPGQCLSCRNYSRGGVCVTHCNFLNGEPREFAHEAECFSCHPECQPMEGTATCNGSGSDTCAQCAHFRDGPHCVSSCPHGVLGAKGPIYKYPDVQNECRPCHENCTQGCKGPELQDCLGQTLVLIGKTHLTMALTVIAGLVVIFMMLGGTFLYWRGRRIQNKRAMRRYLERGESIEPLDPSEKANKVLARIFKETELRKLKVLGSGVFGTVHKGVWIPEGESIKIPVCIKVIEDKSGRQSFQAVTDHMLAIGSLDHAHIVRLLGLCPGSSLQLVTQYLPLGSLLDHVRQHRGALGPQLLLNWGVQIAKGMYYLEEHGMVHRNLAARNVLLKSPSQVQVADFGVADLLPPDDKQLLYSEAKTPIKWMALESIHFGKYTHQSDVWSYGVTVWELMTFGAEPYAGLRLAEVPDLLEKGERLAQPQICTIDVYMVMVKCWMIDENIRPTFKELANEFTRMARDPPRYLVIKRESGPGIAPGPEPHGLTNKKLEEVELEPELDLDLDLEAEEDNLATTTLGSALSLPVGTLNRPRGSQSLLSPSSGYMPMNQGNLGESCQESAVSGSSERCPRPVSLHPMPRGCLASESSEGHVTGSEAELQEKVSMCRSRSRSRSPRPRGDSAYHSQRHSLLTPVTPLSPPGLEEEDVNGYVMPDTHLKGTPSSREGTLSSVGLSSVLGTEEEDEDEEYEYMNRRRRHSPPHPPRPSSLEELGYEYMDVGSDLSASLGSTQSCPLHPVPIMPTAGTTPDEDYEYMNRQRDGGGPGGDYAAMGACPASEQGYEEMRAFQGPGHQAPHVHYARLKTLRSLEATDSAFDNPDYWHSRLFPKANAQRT

Key:
Experiment in all cases: binding ELISA, GST fusion captured by anti-GST
[1] = target: human-mouse chimeric erbB3 extracellular domain with human domains 1 and 2 and mouse domains 3 and 4, GST fusion (human; mouse) (UniProt Q61526)
[2] = target: human-mouse chimeric erbB3 extracellular domain with human domain 1 and mouse domains 2 to 4, GST fusion (human; mouse) (UniProt Q61526)
[3] = target: human-mouse chimeric erbB3 extracellular domain with human domains 1 to 3 and mouse domain 4, GST fusion (human; mouse) (UniProt P21860)

binding [3]	Binder	binding [1]	binding [2]
binds	anti-human erbB3 monoclonal antibody 1153 (antibody, V domains shown) VH: QVQLQQSGAELVRPGTSVKMSCKAAGYTFTNYWIVWVKQRPGHGLEWIGDIYPGSGHTNYNEKFKGKATLTADTSSSTANMQLSSLTSEDSAIYYCVRPINYDGSYDYWGQGTTLTVSS VL: DIQMNQSPSSLSASLGDTITITCHASQNINVWLSWYQQKPGNIPKLLIYKASNLHTGVPSRFSGSGSGTGFTLTISSLQPEDIATYYCQQGQSYPRTFGGGTKLEIR	binds	binds
binds	anti-human erbB3 monoclonal antibody 920104 (antibody, V domains shown) VH: VQLQESGPGLVKPSQSLSLTCSVTGYSFTNGYYWNWIRQFPGNKLEWMGYISYDGNNSYNPSLKNRISITRDTSKNQFFLKLNSVTTEDTATYYCASHGYYEEDYYAMDYWGQGTSVTVSS VL: DIVLTQSPASLAVSLGQRATISCRASKSVSTSGYSYMHWYQQKPGQPPKLLIYLASNLESGVPARFSGSGSGTDFTLNIHPVEEEDAATYYCQHSRELPLTFGAGTKLELK	–	–

Binder	binding [3]	binding [1]	binding [2]
anti-human erbB3 monoclonal antibody 12511 (antibody, V domains shown) VH: QIQLQQSGPELVNPGASVKISCKPSGYTFTDYYINWVKQRPGQGLEWIGWIHPGGGYTKYNEKFRGKATVTVDTSANTVYMQLSSLTSDDSAVYFCARRDYGDYGFAYWGQGTLVTVSA VL: DIVLTQSPASLAVSLGQRATISCRVSESVDSYGNSFMHWYQQKPGQPPKLLIYRASNLESGIPDRFSGSVSRTDFTLTINPVEPDDVATYYCQQTNEDPPTFGGGTKLEIK	binds	binds	binds
